The source of these data is PubChem BioAssay AID2685 (National Center for Advancing Translational Sciences (NCATS), 2010).

SMILES strings stand for the structures. Some of the results follow. The main result of the screen is listed elsewhere. These columns were measured beside it and carry no call. The list favours compounds with an active or inconclusive main result. Potencies come from curve fits of mixed quality, noted in brackets.

This assay can be described thus: qHTS Assay for Lipid Storage Modulators in Drosophila S3 Cells.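 As to cell number change: cells counted by Cell Tracker Red CMTPX staining in the red channel.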 Conditions: BODIPY lipid droplet fluorescence, 18-24 h; for cell number change: measured here: cell count max response, cells fed with added oleic acid. The procedure, abridged: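 Laser-scanning cytometry quantifies lipid droplet accumulation (500–530 nm total intensity; droplet/cell object ratio) in oleic acid-fed (400 uM added) Drosophila S3 cells treated with a concentration series. 20 uM Triacsin C defined 100% inhibition.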
For orientation: In qHTS, concentration-response curves come from the screen itself.

The mark [1] stands for this setting: measured here: lipid fluorescence (Fed channel) AC50, cells fed with added oleic acid.
Setting [2] is: measured here: cell number channel AC50, cells fed with added oleic acid.

Broadly, the AC50 is the concentration giving half of the maximal activity seen. Turning to `COC(=O)CNC(c1ccccc1Cl)c1cc(Br)ccc1NS(=O)(=O)c1ccc(C)cc1` (stereo unspecified), the cell number change came to 16.4%. For the same molecule, under setting [1], the AC50 is 0.231 µM [rising, full curve, poor fit].
Turning to `COC(=O)c1c(-n2cnnn2)sc(C)c1C`, the cell number change was -4.94%. Moreover, the AC50 under setting [1] was 0.103 µM [falling, full curve, poor fit].
Take `O=C(c1cccs1)N1CCCC(c2nc3c(nnn3Cc3ccc(F)cc3)c(=O)[nH]2)C1` (stereo unspecified): the cell number change was -18.4%.
As for `O=C(NC1CCCCC1)C1CC(=O)N(Cc2ccccc2)C1` (stereo unspecified), the cell number change was determined as 13.9%. The concentration at half-maximal activity (AC50) under setting [1] was 6.51 µM [falling, single point].
As for `O=C(COC(=O)/C=C/c1cccc([N+](=O)[O-])c1)Nc1ccc(Cl)cn1`, the cell number change was determined as 4.44%.
Regarding `CCOC(=O)N1CCc2c(sc3c2c(=O)n(Cc2ccccc2)c(=O)n3CC(=O)NCC2CCCO2)C1` (stereo unspecified), the cell number change is 7.08%. In addition, the half-maximal activity concentration (AC50) under setting [2] was 6.51 µM [rising, single point]. The half-maximal activity concentration (AC50) under setting [1] was 3.26 µM [rising, single point].
Regarding `CNC(=O)CSc1nc2cc(S(=O)(=O)Nc3ccccc3OC)ccc2o1`, the cell number change worked out at 1.68%. Besides, the AC50 under setting [1] is 6.51 µM [rising, single point].
Regarding `CC1=C(C(=O)OCc2ccccc2)C(c2cccc(Br)c2)NC(=O)N1` (stereo unspecified), the cell number change was -25.5%. The AC50 under setting [1] is 6.51 µM [falling, partial curve, poor fit].
Consider `CCN1CCN(C(=O)C(C)Sc2nnc3nc(C)cc(C)n23)CC1` (stereo unspecified), for which the cell number change is -16.8%. Besides, under setting [2], the concentration at half-maximal activity (AC50) was 0.731 µM [falling, partial curve, poor fit]. Moreover, under setting [1], the AC50 was 0.00651 µM [falling, full curve, poor fit].
In the case of `Cc1ccccc1NS(=O)(=O)c1cc(C(=O)Nc2cccnc2)ccc1C`, the cell number change came to 1.62%. In addition, under setting [1], the AC50 is 29.1 µM [falling, single point].
Regarding `O=C(c1ccc(COc2ccc(F)cc2)o1)n1cccn1`, the cell number change was -1.44%. For the same molecule, under setting [1], the concentration at half-maximal activity (AC50) was 0.092 µM [falling, full curve, poor fit].
Consider `CCn1c(SCC(=O)Nc2ccc(C)cc2)nc2sc3c(c2c1=O)CCN(C)C3`, for which the cell number change was -15.1%. For the same molecule, under setting [1], the AC50 was 6.51 µM [rising, single point].
Turning to `O=C1CCCN1c1ccc(S(=O)(=O)NCCc2ccc(Cl)cc2)cc1`, the cell number change is -5.39%.
`C/C(=N/NC(=O)CNC(=O)C1COc2ccccc2O1)c1ccc([N+](=O)[O-])cc1` (stereo unspecified): the cell number change turned out to be 11.7%. The concentration at half-maximal activity (AC50) under setting [1] is 6.51 µM [rising, single point].
On to `CCOc1ccccc1N1CCN(C(=O)c2ccc(OCC(=O)N3CCOCC3)c(OC)c2)CC1`, for which the cell number change was -22.3%. Also, the AC50 under setting [1] was 14.1 µM [falling, single point].
For `Cc1ccccc1C(=O)NCC(=O)OCC(=O)NC(C)C1CC2CCC1C2` (stereo unspecified), the cell number change is -39.1%. Moreover, the AC50 under setting [2] was 29.1 µM [falling, single point]. Moreover, the AC50 under setting [1] is 29.1 µM [falling, single point].
As for `O=C(N/N=C/c1sc(N2CCCCC2)nc1-c1cccs1)C1CC1`, the concentration at half-maximal activity (AC50) under setting [2] was 2.59 µM [rising, single point].
As to `CC(=O)c1cccc(NS(=O)(=O)c2ccc(C(=O)Nc3ccccc3)cc2)c1`, the cell number change was -37.2%.
Take `Cc1cc(NC(=O)COc2cccnc2[N+](=O)[O-])no1`: the cell number change was determined as 34%. Further, under setting [1], the AC50 was 0.651 µM [falling, full curve].
In the case of `CC(NC(=O)C1CCN(S(=O)(=O)c2cccs2)CC1)c1cccc(Cl)c1` (stereo unspecified), the cell number change is -8.41%. Under setting [1], the AC50 was 1.84 µM [rising, partial curve, poor fit].
In the case of `COc1ccc(-n2nc(C(=O)NCC(=O)NCCCN3CCOCC3)c3ccccc3c2=O)c(OC)c1`, the cell number change came out at 18%. For the same molecule, the AC50 under setting [1] was 29.1 µM [falling, single point].
With `CCCC1C2CN(C(C)C)CC=C2C(C#N)=C(N)C1(C#N)C#N` (stereo unspecified), the cell number change was -15%. The concentration at half-maximal activity (AC50) under setting [1] is 2.59 µM [rising, single point].
With `CCOc1ccc(NC(=O)CSc2nc3cccnc3n2CC)cc1`, the cell number change is 6.07%.
Take `O=S(=O)(Nc1ccc(Cl)cc1)c1ccc2c(c1)CCO2`: the cell number change was -27.6%. Moreover, the AC50 under setting [1] is 1.03 µM [falling, full curve, poor fit].
For the molecule `CC(C)n1c(O)c(N=Nc2ccccn2)c2ccccc21`, the cell number change turned out to be 21.1%. Also, the concentration at half-maximal activity (AC50) under setting [1] was 1.84 µM [rising, partial curve].
For the molecule `Cc1nc2cc(C(=O)NCc3ccc4c(c3)OCO4)ccc2n1-c1ccc(Br)cc1`, the cell number change turned out to be 26.3%. Also, the AC50 under setting [1] was 6.51 µM [rising, partial curve, poor fit].
`CCOC(=O)C(C#N)C(c1cccnc1)c1c(C)[nH][nH]c1=O` (stereo unspecified): the AC50 under setting [2] was 0.13 µM [falling, full curve, poor fit].
With `Nc1ccccc1NC(=O)NC(=O)c1ccccc1`, the cell number change came to 10.6%. Further, the concentration at half-maximal activity (AC50) under setting [1] was 29.1 µM [rising, single point].
With `Cc1ccc(NC(=O)CCNC(=O)c2ccc([N+](=O)[O-])cc2)cc1S(=O)(=O)N(C)C`, the cell number change is -18.3%. Besides, under setting [1], the concentration at half-maximal activity (AC50) was 0.13 µM [falling, full curve, poor fit].
As for `CCCn1nnc(NC(=O)c2ccccc2Cl)n1`, the cell number change came to 7.64%. The concentration at half-maximal activity (AC50) under setting [1] was 0.58 µM [falling, partial curve].
As for `Cc1ccc(OCCCC(=O)N(C)CC(=O)Nc2ccccc2Br)cc1`, the cell number change is 44.6%. In addition, under setting [2], the AC50 is 20.6 µM [rising, partial curve].
As to `COc1ccc(C(=O)Nc2nc3ccccc3s2)c(OC)c1`, the cell number change was -41.2%. Also, under setting [2], the AC50 was 23.1 µM [falling, partial curve, poor fit].
Take `O=C(NC1CC2CCC(C1)N2C(=O)NC1CCCCC1)NC12CC3CC(CC(C3)C1)C2` (stereo unspecified): the cell number change is -9.86%. Under setting [2], the concentration at half-maximal activity (AC50) is 0.0058 µM [falling, full curve, poor fit]. For the same molecule, the AC50 under setting [1] was 0.13 µM [falling, full curve, poor fit].
Turning to `CC(=O)c1ccc(N(C(=O)CNC(=O)c2cccs2)C(C(=O)NCC2CCCO2)c2ccccc2)cc1` (stereo unspecified), the cell number change came out at 9.52%. Further, the AC50 under setting [2] is 0.206 µM [rising, full curve, poor fit]. Moreover, the concentration at half-maximal activity (AC50) under setting [1] is 29.1 µM [falling, single point].
For the molecule `COc1ccccc1-c1nnc(N(C)C(=O)C2CCCO2)s1` (stereo unspecified), the AC50 is, setting by setting: under setting [2], 2.59 µM [rising, partial curve]; under setting [1], 18.4 µM [rising, partial curve].
For `Cc1ccc(NC(=O)/C=C/c2ccc3c(c2)OCO3)cc1S(=O)(=O)N1CCOCC1`, the cell number change was -43.7%. In addition, the concentration at half-maximal activity (AC50) under setting [2] is 25.9 µM [falling, single point]. Further, the AC50 under setting [1] was 0.058 µM [falling, full curve].
Regarding `COc1ccc2nc3oc(C(=O)NCc4cccs4)cc3cc2c1`, the cell number change stood at 9.77%.
For the molecule `COCCCNC(=O)/C=C/c1c(Cl)cccc1Cl`, the concentration at half-maximal activity (AC50) under setting [1] is 0.82 µM [rising, full curve, poor fit].
With `COc1cccc(-n2cnc3c(sc4nc(N5CCOCC5)c5c(c43)CCCC5)c2=O)c1`, the cell number change was found to be 5.19%. Besides, the AC50 under setting [2] is 2.31 µM [rising, single point]. For the same molecule, the concentration at half-maximal activity (AC50) under setting [1] is 6.51 µM [rising, single point].
On to `Cc1cc(C)n(-c2ccc(C(=O)Nc3nnc(C)s3)cc2)n1`, for which the AC50 under setting [1] is 0.58 µM [rising, single point].
As to `Cc1cc(C(=O)N2CCCC(N3CCN(c4cccc(Cl)c4)CC3)C2)n(C)n1` (stereo unspecified), the cell number change was 42.2%. The half-maximal activity concentration (AC50) under setting [2] was 3.66 µM [rising, full curve].
Regarding `COc1cc(NC(=O)Cc2ccccc2)ccc1NC(=O)Cc1ccccc1`, the cell number change worked out at 37%. Besides, the concentration at half-maximal activity (AC50) under setting [2] is 20.6 µM [rising, single point]. Also, under setting [1], the AC50 was 0.82 µM [rising, full curve].
Turning to `CN(c1ccc(OCC(=O)N2CCCCC2)cc1)S(=O)(=O)c1cccs1`, the cell number change was 78.9%. Under setting [2], the concentration at half-maximal activity (AC50) is 20.6 µM [rising, partial curve, poor fit]. Besides, the AC50 under setting [1] was 3.66 µM [rising, single point].
For the molecule `O=C(CSc1nnc2sc3ccccc3n12)N1CCN(c2ccccc2)CC1`, the cell number change is 271%. Also, the AC50 under setting [2] was 29.1 µM [rising, single point].
As for `CCOc1cc(C(=O)N/N=C(\C)Cc2ccc(OC)cc2)cc(OCC)c1OCC`, the cell number change is 6.38%.
`Cc1ccc(NS(=O)(=O)c2ccc3[nH]c(=O)oc3c2)cc1Cl`: the cell number change was -33.1%. The half-maximal activity concentration (AC50) under setting [2] is 13 µM [falling, partial curve]. Moreover, the concentration at half-maximal activity (AC50) under setting [1] was 0.651 µM [falling, full curve].
For the molecule `COC(=NC(C)C)NC(C)C`, the cell number change stood at 5.44%. In addition, the half-maximal activity concentration (AC50) under setting [1] was 3.66 µM [falling, full curve].
For `Cc1c(OC(C(=O)O)c2ccccc2)ccc2c1oc(=O)c1ccccc12` (stereo unspecified), the cell number change is 15.5%. Also, the half-maximal activity concentration (AC50) under setting [1] is 29.1 µM [rising, single point].
As to `C/C(=N\NC(=O)Cc1ccc(Cl)cc1)c1ccc(F)cc1`, the cell number change is -11.3%. The concentration at half-maximal activity (AC50) under setting [1] is 6.51 µM [falling, single point].
Take `Cc1[nH]n(-c2ccc([N+](=O)[O-])cc2)c(=O)c1C=NCCN1CCN(C(=O)c2ccccc2)CC1`: the cell number change is 81.7%. Also, the AC50 under setting [2] was 14.6 µM [rising, partial curve]. Moreover, under setting [1], the AC50 is 20.6 µM [rising, partial curve].
Regarding `COc1ccccc1OCc1cc(C(=O)N2CC3C[C@@H]4CC2C[C@H](C3)C4)no1`, the cell number change is -50.5%. The AC50 under setting [2] was 23.1 µM [falling, partial curve]. Besides, under setting [1], the AC50 was 20.6 µM [falling, single point].
For `Clc1cccc(CSc2nc3ccncc3[nH]2)c1`, the cell number change came to 1.44%. In addition, the AC50 under setting [1] was 29.1 µM [rising, single point].
As to `NC(=O)CN1C(=O)C2CCCCN2C(=O)c2ccccc21` (stereo unspecified), the cell number change was -1.26%. Further, the AC50 under setting [1] was 4.11 µM [rising, single point].
For the molecule `Cc1ccc(-n2nc3c(=O)n(CCCC(=O)NCc4ccc(F)cc4)nc(C)c3c2C)cc1`, the cell number change worked out at 5.34%. Besides, the half-maximal activity concentration (AC50) under setting [1] was 11.6 µM [falling, single point].
Turning to `COc1ccc(OCC2c3cc(OC)c(OC)cc3CCN2C(=O)C(C)C)cc1` (stereo unspecified), the cell number change is -2.22%. For the same molecule, the AC50 under setting [1] was 29.1 µM [falling, single point].
Consider `O=C(NNC(=O)c1ccccc1Br)c1ccccc1Cl`, for which the cell number change is -38%. In addition, the AC50 under setting [2] is 29.1 µM [falling, single point].
With `CC(C)n1cc(/C=C/c2cc[n+](C)cc2)c2ccccc21`, the cell number change is -80.7%. The AC50 under setting [2] is 29.1 µM [falling, single point]. Besides, the concentration at half-maximal activity (AC50) under setting [1] was 8.2 µM [falling, partial curve].
